Assay results reported in PubChem BioAssay AID588497 (NMMLSC, 2011).
Hit rate of the full screen: of about 360,000 compounds, about 780 (0.22%) were called active. Inconclusive means that the source gave no clear call. Such entries were picked first, then a sample of the others. Rule as the data show it: active = inhibition above about 35% (passing the limit was not always enough); inconclusive = no clear call, values can overlap the other calls.

test system: Botulinum neurotoxin type F light chain protease (Clostridium botulinum); assay: BoNT/F light chain protease inhibitors, primary screen, biochemical, flow cytometry, MLPCN library (AID 588497); conditions: Multiplex microsphere protease cleavage assay, at 10 µM, hits give high values; also: plate controls were buffer without enzyme for full effect and enzyme alone for no effect

Structure (SMILES)	inhibition
CCN1C(=O)CSC1=Nc1ccccc1Cl	inconclusive: -9.4%
O=C(c1ccccc1)N1CCN(c2ncccn2)CC1	inconclusive: -31%
CCOC(=O)c1ccc(N=Nc2c(C)c(C#N)c(O)[nH]c2=O)cc1	inactive: 1.4%
COP(=O)(OC)C(NC(=O)C(C)(C)C)=C(Cl)Cl	inactive: 1.2%
CSc1nc(C)c(Cc2c(F)cccc2Cl)c(=O)[nH]1	inconclusive: 4.7%
Cc1nn(CCc2n[nH]c(=S)n2C2CCCCC2)c(C)c1Br	inactive: -7%
C[C@@H]1CN([C@@H](C)CO)C(=O)CCCn2nncc2CO[C@@H]1CN(C)S(=O)(=O)c1cn(C)cn1	inactive: -1.2%
Cc1ccc2nc(-c3ccc(C#N)cc3)c(Cc3cccc(Cl)c3)n2c1	inactive: 7%
COc1ccc(-c2oc(NC(=O)c3ccc(C)cc3)c(C#N)c2-c2ccc(OC)cc2)cc1	inconclusive: 4.6%
CC1CN(C(=O)c2ccc(-c3cccc(C(F)(F)F)c3)o2)CC(C)O1 (configuration not stated)	inconclusive: 9.4%
CC(c1ccccc1)n1cnc2ccccc2c1=O (configuration not stated)	inactive: -39.8%
CCOc1ccc(N(C(C)C(=O)N2CCOCC2)S(C)(=O)=O)cc1 (configuration not stated)	inconclusive: -2.3%
C#CCN1C=CC(=O)[C@@H](OC(=O)NCCC)[C@H]1c1ccccc1Br	inactive: -5.7%
Cc1ccc(Cn2nc(C)cc2C(=O)Nc2ccc(Cl)cc2)cc1	inconclusive: -53.5%
Cc1c(C)n(CCCN(C)C)c2ncnc(NC3CCCCC3)c12	inconclusive: -14.3%
Cc1cccc(NS(=O)(=O)Cc2ccccc2)n1	inconclusive: -18.9%
C=CCNC(=S)NC(=O)c1csc([N+](=O)[O-])c1	inconclusive: -36.8%
O=C(CSc1nccc(-c2cccs2)n1)Nc1cccc(Cl)c1	inconclusive: 13.4%
Cc1ccc([N+](=O)[O-])c(OCCN2CCC(Cc3ccccc3)CC2)c1	inactive: 0.4%
COc1cc([N+](=O)[O-])c(OC)cc1SCc1n[nH]c(=S)n1-c1ccc(F)cc1	inconclusive: 2.2%
CCCOC1CCCN(Cc2nc(-c3cnccn3)no2)C1 (configuration not stated)	active: 34.9%
C/C(=N/OC(=O)c1ccccc1)c1oc(C)nc1C	inconclusive: -50.7%
Cc1ccccc1-c1ccc(/C=C2/SC(N3CCOCC3)=NC2=O)o1	inconclusive: 29%

Structure (SMILES)	inhibition
Cc1nc2ccccc2c2c1C(=O)N(C1CCCCCCC1)C2=O	inconclusive: -10.2%
CCOC(=O)c1c(N)c2cc([N+](=O)[O-])ccc2n1C	inconclusive: 62.6%
COc1ccc(S(=O)(=O)Nc2cccnc2)c(C)c1C	inconclusive: -24.2%
CCOC(=O)CNC(=O)N1CCC(CCC(=O)N(C)Cc2ccccc2)CC1	inconclusive: 14%
COc1cc(NC(=O)CCC(=O)Nc2ccc3nc(N4CCOCC4)cc(C)c3c2)cc(OC)c1OC	inactive: -12.8%
Cc1nnc(Cn2cnc3c2c(=O)n(C)c(=O)n3C)o1	inactive: -5.3%
CCc1ccccc1NNC(=O)c1cc(C)on1	inconclusive: 94.8%
Cc1ccc(C(C)C)c(OCC(=O)NNC(=O)Nc2ccccc2)c1	inconclusive: 38.6%
Cc1cc(C)n(CC(C)C(=O)O)n1 (configuration not stated)	inactive: -0.4%
COc1cc(CNCc2ccncc2)ccc1OCC(N)=O	inconclusive: 20.5%
O=C(N/N=C/c1c(O)n(-c2cccc3ccccc23)c(=O)[nH]c1=O)c1ccncc1	inconclusive: -18%
COCCNC(=S)N1CCC2CC1c1c(Cl)cccc12 (configuration not stated)	inactive: 0.2%
CN(C)Cc1ccccc1C(O)(c1ccccc1)c1ccccc1	inconclusive: -34.9%
COCCNC(=O)C(c1ccco1)N(Cc1ccc(OC)cc1)C(=O)Cn1nnc2ccccc21 (configuration not stated)	active: 38.9%
COC(=O)c1[nH]c2ccccc2c1NC(=O)C(C)N1CCOCC1 (configuration not stated)	inconclusive: -28.5%
O=C(c1ccc(F)cc1)N1CCN(C2CCC(c3ccccc3)CC2)CC1 (configuration not stated)	inactive: 2.3%
O=C(NC1CC2CCC1C2)c1ccco1 (configuration not stated)	inactive: 1.7%
Clc1ccc(OCCOCCNCc2ccccc2)cc1Cl	inconclusive: -25.5%
COc1ccc(-c2ccc3c(c2)S(=O)(=O)c2cccc(C(=O)NCCOc4ccccc4)c2C3=O)cc1OC	inactive: 4.4%
Cc1ccc(C(=O)N/C(=C\c2ccc(-c3ccccc3[N+](=O)[O-])o2)C(=O)NCCCN(C)C)cc1	inconclusive: -69.4%
COc1ccc(NC(=O)c2cc(-c3ccc(C)cc3)on2)cc1	inconclusive: -12.1%
COc1ccc(C(=O)NC(C)CCCC(C)(C)O)cc1OC1CCN(C(C)=O)CC1 (configuration not stated)	inconclusive: -2.9%
COC(=O)NC(=S)N1CCOCC1	inactive: -2.2%

Structure (SMILES)	inhibition
O=C(CSCc1ccccc1)NCCc1ccc(F)cc1	inconclusive: -7.6%
CC(=O)N(c1ccccc1)C1CC(C)N(C(=O)c2ccccc2)c2ccccc21 (configuration not stated)	inconclusive: -23.9%
Cc1c(OCC(=O)N2CCC[C@@H]2C(=O)O)ccc2c3c(c(=O)oc12)CCC3	inactive: -5%
COC(=O)C1=NN(c2ccc(C)cc2)C2C(=O)N(c3ccccc3OC)C(=O)C12 (configuration not stated)	inconclusive: 21.1%
Cn1nc([N+](=O)[O-])c2c(-c3nc4ccccc4s3)c(N)n(C3CCCCC3)c2c1=O	inconclusive: 1.9%
C=CCN1C(=O)C(O)(CC(=O)c2ccc(OC)cc2OC)c2cc(Br)ccc21 (configuration not stated)	inconclusive: -44%
CCOc1ccccc1NC=C1C(=O)OC(C)(C)OC1=O	inactive: -1.5%
CCOc1ccc(-c2c(C)n(-c3ccc(OCC)cc3)c3[n+]2CCCCC3)cc1	inconclusive: -49.1%
CS(=O)(=O)c1ccc(C(=O)Nc2ccccc2Cl)cc1	inconclusive: -32.4%
Brc1ccc(CNCC2CCCO2)cc1 (configuration not stated)	inconclusive: 2.2%
O=C1NC(=O)N(CCc2ccc(F)cc2)C(=O)/C1=C/C=C/c1ccccc1	inconclusive: -76%
CC1=CC(C)(C)Nc2ccc(Cc3ccc4c(c3)C(C)=CC(C)(C)N4)cc21	inconclusive: -81.3%
Cc1ccc(S(=O)(=O)N2CCN(C(=O)c3n[nH]c(=O)c4ccccc34)CC2)cc1	inactive: 3.9%
Cc1ccccc1-c1nc(CSc2nc3c(c(=O)[nH]2)CCC3)c(C)o1	inactive: 6.3%
COc1ccc(NC(=O)O/N=C/c2ccc(Br)cc2)cc1	inconclusive: -10.6%
O=C1/C(=C/c2ccncc2)CCc2ccccc21	inconclusive: 3.1%
CCc1ccc(NC(=O)C(C)OC(=O)c2cccc(S(=O)(=O)N3CCc4ccccc4C3)c2)cc1 (configuration not stated)	inactive: 2.2%
CC1(C)CC(=O)c2cc(OCC(=O)NCCCN3CCN(c4ccc(F)cc4)CC3)ccc2O1	inactive: 3.2%
O=c1[nH]cnc(O)c1N=Nc1ccccc1	inconclusive: 25.4%
O=C1C(=O)N(Cc2cccnc2)C(c2ccccn2)/C1=C(/O)c1ccccc1 (configuration not stated)	inactive: 8.5%
O=C1NCCN/C1=C\C(=O)c1ccc(F)cc1	inconclusive: -23.8%
Cc1c(Cl)cccc1NC(=O)C1=COCCO1	inactive: -8.1%
CCN(C(=O)COC(=O)Cn1c(C)csc1=O)c1c(N)n(Cc2ccccc2)c(=O)[nH]c1=O	inconclusive: -7.6%

Retrieved one by one from the entries so far, two records:
Structure (SMILES)	inhibition
Cc1ccccc1-c1nc(CSc2nc3c(c(=O)[nH]2)CCC3)c(C)o1	inactive: 6.3%
CCOc1ccccc1NC=C1C(=O)OC(C)(C)OC1=O	inactive: -1.5%

More results

Structure (SMILES)	inhibition
Cc1cccc(NC(=O)C2CCCN2C(=O)Oc2ccccc2)c1C (configuration not stated)	inconclusive: 12.5%
Cc1ccc(C)c(-n2c(SCC(=O)N3CCCC3)nnc2-c2ccccn2)c1	inconclusive: 2.7%
O=C(OCCN1CCOCC1)c1ccc(Cl)cc1Cl	inconclusive: 9.8%
Cn1c(SCc2cc(=O)[nH]c(C(C)(C)C)n2)nnc1C(F)(F)F	inconclusive: -118%
O=C(Cc1cccs1)N/N=C/C=C/c1ccccc1[N+](=O)[O-]	inconclusive: -8.5%
COc1cccc(NC(=O)CN(C)C(=O)c2ccc(OCc3ccccc3)c(OC)c2)c1	inactive: 20.8%
O=C(COc1ncnc2cc(Cl)ccc12)c1ccc2c(c1)OCCO2	inconclusive: 78.9%
C=CCN1C(=O)CSC1=Nc1ccc(C(=O)O)cc1	inconclusive: 1.5%
C=C(C)CSc1nnc(-c2cc(OC)c(OC)c(OC)c2)n1N	inactive: -5.9%
Cc1ccc(NC(=O)c2sc(N)nc2C)cc1	inconclusive: -15.3%
COc1ccc(C2NCc3ccc4c(c3-n3cccc32)OCO4)cc1OC (configuration not stated)	inconclusive: -62.9%
COc1cccc(/C=N/NC(=O)c2cnccn2)c1OC	inconclusive: 22.3%
O=C(CC1C(=O)NCCN1C(=S)Nc1ccccc1)Nc1ccc2c(c1)OCCO2 (configuration not stated)	inactive: -5.1%
CC(=O)c1cccc(CN2CCCC(N3CCN(c4ccccc4F)CC3)C2)c1 (configuration not stated)	inconclusive: -26.4%
N/C(=N\c1nc2ccccc2o1)NC(=O)c1ccccc1Br	inconclusive: 8.2%
Cc1cc(N(C)Cc2ccccc2)nc2cc(O)ccc12	inconclusive: 2.9%
Cc1ccc(NC(=O)COC(=O)c2ccc(Cl)nc2)cc1S(=O)(=O)N1CCCCC1	inactive: 13.2%
COc1cc(/C=C/C(=O)OC(C)C(=O)c2ccccc2)cc(OC)c1OC (configuration not stated)	inconclusive: -2.4%
Cc1ccc(N2CCC(N3CCN(C)C(CCO)C3)CC2)cc1 (configuration not stated)	inconclusive: 16.8%
O=C(NC1CC2CCCC(C1)N2Cc1ccccc1)c1cccc(Cl)c1 (configuration not stated)	inconclusive: 3.1%
Cc1cc2c(cc1C)N(C(=O)CSC1=NCCS1)C(C)(C)c1ssc(=S)c1-2	inactive: -5.5%
NC(N)=NC(N)=Nc1cccc2ccccc12	inconclusive: 1.2%
N#C/C(=C(/O)c1ccco1)c1nc2ccccc2s1	inconclusive: 24.7%

Molecules above that have an NH in an aromatic ring:
Structure (SMILES)	inhibition
CCOC(=O)c1ccc(N=Nc2c(C)c(C#N)c(O)[nH]c2=O)cc1	inactive: 1.4%
CSc1nc(C)c(Cc2c(F)cccc2Cl)c(=O)[nH]1	inconclusive: 4.7%
Cc1nn(CCc2n[nH]c(=S)n2C2CCCCC2)c(C)c1Br	inactive: -7%
COc1cc([N+](=O)[O-])c(OC)cc1SCc1n[nH]c(=S)n1-c1ccc(F)cc1	inconclusive: 2.2%
O=C(N/N=C/c1c(O)n(-c2cccc3ccccc23)c(=O)[nH]c1=O)c1ccncc1	inconclusive: -18%
COC(=O)c1[nH]c2ccccc2c1NC(=O)C(C)N1CCOCC1 (configuration not stated)	inconclusive: -28.5%
Cc1ccc(S(=O)(=O)N2CCN(C(=O)c3n[nH]c(=O)c4ccccc34)CC2)cc1	inactive: 3.9%
Cc1ccccc1-c1nc(CSc2nc3c(c(=O)[nH]2)CCC3)c(C)o1	inactive: 6.3%
O=c1[nH]cnc(O)c1N=Nc1ccccc1	inconclusive: 25.4%
CCN(C(=O)COC(=O)Cn1c(C)csc1=O)c1c(N)n(Cc2ccccc2)c(=O)[nH]c1=O	inconclusive: -7.6%
Cn1c(SCc2cc(=O)[nH]c(C(C)(C)C)n2)nnc1C(F)(F)F	inconclusive: -118%
